{"sequences": {"note": "The chains behind the UniProt entries cited, without tags or fusion partners. Where a name states a change or a piece, a line headed by the entry shows the natural chain unless it says otherwise.", "UniProt P19793": "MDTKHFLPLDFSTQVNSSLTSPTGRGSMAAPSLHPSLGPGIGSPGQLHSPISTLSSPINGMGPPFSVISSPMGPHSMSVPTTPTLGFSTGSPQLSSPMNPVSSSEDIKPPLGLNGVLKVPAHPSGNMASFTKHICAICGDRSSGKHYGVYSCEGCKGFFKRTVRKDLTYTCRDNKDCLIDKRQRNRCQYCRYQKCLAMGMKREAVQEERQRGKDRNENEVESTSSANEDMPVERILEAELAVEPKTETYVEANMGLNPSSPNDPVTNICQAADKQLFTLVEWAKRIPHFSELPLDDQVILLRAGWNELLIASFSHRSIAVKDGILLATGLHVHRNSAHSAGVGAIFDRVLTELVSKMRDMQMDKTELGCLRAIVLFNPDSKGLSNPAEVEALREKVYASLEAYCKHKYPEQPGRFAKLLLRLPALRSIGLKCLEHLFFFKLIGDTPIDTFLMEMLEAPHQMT"}, "source": "PubChem BioAssay (Tox21)", "key": {"[1]": {"biological_target": "Retinoic acid receptor RXR-alpha (Homo sapiens) (UniProt P19793)", "assay": "qHTS assay to identify small molecule agonists of the RXR signaling pathway (AID 1159527; calls by dose curve; note: nearly all actives have a fitted effect of over 35% in size; for activation: % is set by controls: 0 for no effect and ±100 for the full control effect)", "settings": "HEK293T RXRa-UAS-bla, beta-lactamase ratio, 16 h; activation: at 76.8 µM (top of the series) unless noted", "outline": "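Agonist-mode beta-lactamase reporter assay: HEK 293T RXR-alpha-UAS-bla cells treated 16 hr at 37 C with compounds, 9-cis retinoic acid as positive control. LiveBLAzer FRET substrate, 405 nm excitation, 460/530 nm emission.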"}, "[2]": {"assay": "qHTS assay to identify small molecule antagonists of the retinoic acid receptor (RAR) signaling pathway (AID 1159552; note: nearly all actives have a fitted effect of over 50% in size)", "outline": "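Luminescent RARE reporter read-out in C3RL4 cells: 6 hr co-treatment at 37 C of test compounds with retinol at 1 uM final. Cells plated overnight beforehand; luciferase reagent incubated 30 min at room temperature before reading.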"}, "[3]": {"assay": "qHTS assay to identify small molecule agonists of the retinoic acid receptor (RAR) signaling pathway (AID 1159553); for activation: % is set by controls: 0 for no effect and ±100 for the full control effect", "settings": "C3RL4 RARE luciferase reporter, agonist, 6 h; activation: at 73.3 µM (top of the series) unless noted", "outline": "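Seed C3RL4 reporter cells at 1,000 per well and incubate overnight at 37 C. Add compounds in DMSO, incubate 6 hr. Add luciferase reagent, wait 30 min at room temperature, read luminescence.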"}, "[4]": {"assay": "qHTS assay to identify small molecule antagonists of the retinoid acid receptor (RAR) signaling pathway - cell viability counter screen (AID 1159551); note: nearly all actives have a fitted effect of over 35% in size", "outline": "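Cells (C3RL4) are plated, incubated overnight, dosed with compound in DMSO, then given retinol at 1 uM final. After 6 h at 37 C, CellTiter-Glo is added and luminescence read following 30 min at room temperature.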"}, "[5]": {"assay": "qHTS assay to identify small molecule antagonists of the estrogen related receptor (ERR) signaling pathway (AID 1224819; note: nearly all actives have a fitted effect of over 50% in size)", "outline": "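qHTS in ERR cells, 2,000/well, 1536 format. Cpd (DMSO) added after 6 h settle, 18 h 37 C. One-Glo luminescence, 30 min RT.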"}, "[6]": {"assay": "qHTS assay to identify small molecule antagonists of the estrogen related receptor signaling pathway with the pleiotropic PPARgamma coactivator (PGC) cell viability counter screen (AID 1224822)", "outline": "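Multiplexed viability counter screen run in PGC/ERR cells treated with compounds for 17.5 h at 37 C; live-cell protease signal measured by CellTiter-Fluor fluorescence.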"}}, "note": "Where “and” joins values, the source holds several entries; their conditions need not be identical. Equal entries are not always repeated. This list was built around the results that the source calls inconclusive (neither active nor inactive); the mix of calls is not that of the screen. Potencies beside an inconclusive call are fits to weak or partial responses and may not hold up. Some compounds were tested as several samples or in several runs, with calls that do not always agree. Calls of active or inactive are those of the source. Unless noted, calls come from the whole dose curve; as a rule, active = well fitted curve in the direction sought with a large enough effect in the repeat runs; inconclusive = weak or mixed curves; inactive = no such curve, though single readings can be large; an effect the other way counts as inactive or inconclusive. Potency is the fitted concentration of half-maximal effect."}
{"compound": "COc1ccc(-c2coc3cc(O)ccc3c2=O)cc1", "values": [{"measurement": "Potency", "setting": "[1]", "value": "inconclusive: 8.71 µM [activator, full curve, poor fit]"}, {"measurement": "Potency", "setting": "[2]", "value": "inactive"}]}
{"compound": "CC[C@@H]1C[C@H](N(Cc2cc(C(F)(F)F)cc(C(F)(F)F)c2)C(C)=O)c2cc(C(F)(F)F)ccc2N1C(=O)OC(C)C", "values": [{"measurement": "activation", "setting": "[1]", "value": "inconclusive: 0.491%"}, {"measurement": "Potency", "setting": "[2]", "value": "inconclusive: 0.154 µM [inhibitor, full curve, poor fit]"}]}
{"compound": "C[N+](C)(C)CCCCCC[N+](C)(C)C", "values": [{"measurement": "Potency", "setting": "[1]", "value": "active: 10.7 µM"}, {"measurement": "Potency", "setting": "[2]", "value": "active: 16.8 µM"}]}
{"compound": "c1ccc(Nc2ccccc2)cc1", "values": [{"measurement": "Potency", "setting": "[1]", "value": "inconclusive: 15.5 µM [inhibitor, full curve, poor fit]"}, {"measurement": "Potency", "setting": "[2]", "value": "inconclusive: 61.1 µM [inhibitor, partial curve, poor fit]"}]}
{"compound": "C/C(=C(/OCCOc1ccc(Cl)cc1)c1ccc(Cl)cc1Cl)n1ccnc1", "values": [{"measurement": "Potency", "setting": "[1]", "value": "inactive"}, {"measurement": "Potency", "setting": "[2]", "value": "inactive"}, {"measurement": "Potency", "setting": "[3]", "value": "inconclusive: 33.5 µM [activator, partial curve, poor fit]"}]}
{"compound": "N=c1ccn2c(n1)O[C@H]1[C@H](O)[C@@H](CO)O[C@H]12", "values": [{"measurement": "Potency", "setting": "[1]", "value": "inactive"}, {"measurement": "Potency", "setting": "[2]", "value": "inconclusive: 38.6 µM [inhibitor, partial curve, poor fit]"}, {"measurement": "activation", "setting": "[3]", "value": "inconclusive: 1.3% [phenotype inactive]"}]}
{"compound": "CC(C(=O)O)c1ccc(/C=C2\\CCCCC2=O)cc1", "note": "(stereo unspecified)", "values": [{"measurement": "Potency", "setting": "[1]", "value": "inconclusive: 23.9 µM [rising, partial curve, poor fit]"}, {"measurement": "Potency", "setting": "[2]", "value": "inactive"}, {"measurement": "Potency", "setting": "[3]", "value": "active: 15 µM"}]}
{"compound": "Nc1ccccc1Nc1ccccc1", "values": [{"measurement": "Potency", "setting": "[1]", "value": "inconclusive: 31 µM [rising, partial curve]"}, {"measurement": "Potency", "setting": "[4]", "value": "inconclusive: 13.7 µM [rising, full curve, poor fit]"}, {"measurement": "Potency", "setting": "[3]", "value": "inconclusive: 34.5 µM [activator, partial curve, poor fit]"}]}
{"compound": "CC(=O)CC(=O)Nc1ccccc1C", "values": [{"measurement": "Potency", "setting": "[1]", "value": "inactive"}, {"measurement": "Potency", "setting": "[2]", "value": "inactive"}]}
{"compound": "CCCCN(CCCC)CC(O)c1cc(Cl)cc2c1-c1ccc(Cl)cc1/C2=C/c1ccc(Cl)cc1", "note": "(stereo unspecified)", "values": [{"measurement": "Potency", "setting": "[1]", "value": "inconclusive: 26.8 µM [falling, single point]"}, {"measurement": "Potency", "setting": "[2]", "value": "inconclusive: 11.9 µM [inhibitor, single point]"}, {"measurement": "Potency", "setting": "[3]", "value": "inactive"}]}
{"compound": "O=[N+]([O-])c1cc(Cl)c(Cl)c(Cl)c1Cl", "values": [{"measurement": "Potency", "setting": "[1]", "value": "inconclusive: 43.5 µM [rising, partial curve, poor fit]"}, {"measurement": "Potency", "setting": "[2]", "value": "inconclusive: 60.9 µM [inhibitor, partial curve, poor fit]"}]}
{"compound": "O=[N+]([O-])c1cccc(I)c1", "values": [{"measurement": "Potency", "setting": "[1]", "value": "inconclusive: 13.7 µM [activator]"}, {"measurement": "Potency", "setting": "[2]", "value": "inactive"}]}
{"compound": "CCC(=O)OCCc1ccccc1", "values": [{"measurement": "Potency", "setting": "[1]", "value": "inconclusive: 59.1 µM [rising, single point]"}, {"measurement": "Potency", "setting": "[2]", "value": "inconclusive: 73.7 µM [inhibitor, single point]"}, {"measurement": "Potency", "setting": "[3]", "value": "inconclusive: 73.7 µM [inhibitor, single point]"}]}
{"compound": "N=C1C=CC(=C(c2ccc(N)cc2)c2ccc(N)cc2)C=C1", "values": [{"measurement": "Potency", "setting": "[1]", "value": "inconclusive: 5.49 µM [inhibitor, full curve]"}, {"measurement": "Potency", "setting": "[2]", "value": "active: 13.7 µM"}, {"measurement": "Potency", "setting": "[3]", "value": "inactive"}]}
{"compound": "CC(C)(C)c1cc(O)c(C(C)(C)C)cc1O", "values": [{"measurement": "Potency", "setting": "[1]", "value": "inconclusive: 15.5 µM [activator, partial curve]"}, {"measurement": "Potency", "setting": "[2]", "value": "inconclusive: 68.6 µM [inhibitor, single point]"}, {"measurement": "Potency", "setting": "[3]", "value": "inconclusive: 43.3 µM [inhibitor, partial curve, poor fit]"}]}
{"compound": "Nc1cccc2c(=O)[nH][nH]c(=O)c12", "values": [{"measurement": "Potency", "setting": "[1]", "value": "inconclusive: 5.52 µM [rising, full curve]"}, {"measurement": "Potency", "setting": "[2]", "value": "inconclusive: 68.9 µM [inhibitor, partial curve, poor fit]"}]}
{"compound": "Cc1cccc(N(C)C(=S)Oc2ccc3ccccc3c2)c1", "values": [{"measurement": "Potency", "setting": "[1]", "value": "inconclusive: 174 nM [inhibitor, partial curve, poor fit] and inconclusive: 190 nM [inhibitor, full curve]"}, {"measurement": "Potency", "setting": "[2]", "value": "inactive"}, {"measurement": "Potency", "setting": "[3]", "value": "active: 2.43 µM and active: 13.3 µM"}]}
{"compound": "CC(C)NCCCC1(C(N)=O)c2ccccc2-c2ccccc21", "values": [{"measurement": "Potency", "setting": "[1]", "value": "inactive"}, {"measurement": "Potency", "setting": "[2]", "value": "inactive"}]}
{"compound": "C#C[C@]1(OC(C)=O)CC[C@H]2[C@@H]3CCC4=C/C(=N/O)CC[C@@H]4[C@H]3CC[C@@]21CC", "values": [{"measurement": "Potency", "setting": "[1]", "value": "inconclusive: 23.9 µM [cytotoxic, single point]"}, {"measurement": "Potency", "setting": "[2]", "value": "inconclusive: 29.8 µM [inhibitor]"}]}
{"compound": "CCCC1O[C@@H]2C[C@H]3[C@@H]4CCC5=CC(=O)C=C[C@]5(C)[C@H]4[C@@H](O)C[C@]3(C)[C@]2(C(=O)CO)O1", "note": "(stereo partly specified)", "values": [{"measurement": "Potency", "setting": "[1]", "value": "inconclusive: 38.9 µM [fluorescent, partial curve] and inconclusive: 24.5 µM [fluorescent]"}, {"measurement": "Potency", "setting": "[4]", "value": "inactive"}, {"measurement": "Potency", "setting": "[5]", "value": "inconclusive: 20.3 µM [inhibitor]"}, {"measurement": "Potency", "setting": "[6]", "value": "inconclusive: 18.8 µM [cytotoxic, single point]"}]}
